According to PMC8276135:
These are yes or no findings as the source states them, for the method shown. Binding seen in cells or lysates may run through a third protein. Some entries that bind do so weakly or less than the wild type. For some of these results: Tags and fused reporters may be left off the sequences shown. Blank lines part the entries; values can stand above or below the binder they belong to.

Tests used:
SUN5-Flag = target: T1, SUN5-Flag (UniProt Q8TC36); assay: co-IP; lysate of HepG2 cells stably expressing SUN5-Flag (IP lysis solution with phosphatase inhibitors); 8 ug antibody (anti-Flag or anti-Nesprin3) or mock IgG overnight at 4°C, Protein A/G magnetic beads, RIPA washes, acid elution, western blot
T1 sequence: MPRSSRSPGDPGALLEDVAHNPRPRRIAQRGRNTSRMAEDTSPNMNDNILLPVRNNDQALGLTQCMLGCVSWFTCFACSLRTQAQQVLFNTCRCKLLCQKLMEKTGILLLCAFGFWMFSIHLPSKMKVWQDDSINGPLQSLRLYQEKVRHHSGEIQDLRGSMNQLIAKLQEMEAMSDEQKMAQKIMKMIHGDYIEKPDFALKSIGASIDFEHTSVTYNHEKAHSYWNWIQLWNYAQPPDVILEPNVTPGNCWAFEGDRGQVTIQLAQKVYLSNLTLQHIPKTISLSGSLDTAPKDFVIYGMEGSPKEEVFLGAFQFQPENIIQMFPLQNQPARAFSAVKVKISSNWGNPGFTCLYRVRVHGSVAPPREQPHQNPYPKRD

[1] = target: T2, Nesprin3 (human (endogenous in HepG2)) (UniProt Q6ZMZ3); assay: as above
T2 sequence: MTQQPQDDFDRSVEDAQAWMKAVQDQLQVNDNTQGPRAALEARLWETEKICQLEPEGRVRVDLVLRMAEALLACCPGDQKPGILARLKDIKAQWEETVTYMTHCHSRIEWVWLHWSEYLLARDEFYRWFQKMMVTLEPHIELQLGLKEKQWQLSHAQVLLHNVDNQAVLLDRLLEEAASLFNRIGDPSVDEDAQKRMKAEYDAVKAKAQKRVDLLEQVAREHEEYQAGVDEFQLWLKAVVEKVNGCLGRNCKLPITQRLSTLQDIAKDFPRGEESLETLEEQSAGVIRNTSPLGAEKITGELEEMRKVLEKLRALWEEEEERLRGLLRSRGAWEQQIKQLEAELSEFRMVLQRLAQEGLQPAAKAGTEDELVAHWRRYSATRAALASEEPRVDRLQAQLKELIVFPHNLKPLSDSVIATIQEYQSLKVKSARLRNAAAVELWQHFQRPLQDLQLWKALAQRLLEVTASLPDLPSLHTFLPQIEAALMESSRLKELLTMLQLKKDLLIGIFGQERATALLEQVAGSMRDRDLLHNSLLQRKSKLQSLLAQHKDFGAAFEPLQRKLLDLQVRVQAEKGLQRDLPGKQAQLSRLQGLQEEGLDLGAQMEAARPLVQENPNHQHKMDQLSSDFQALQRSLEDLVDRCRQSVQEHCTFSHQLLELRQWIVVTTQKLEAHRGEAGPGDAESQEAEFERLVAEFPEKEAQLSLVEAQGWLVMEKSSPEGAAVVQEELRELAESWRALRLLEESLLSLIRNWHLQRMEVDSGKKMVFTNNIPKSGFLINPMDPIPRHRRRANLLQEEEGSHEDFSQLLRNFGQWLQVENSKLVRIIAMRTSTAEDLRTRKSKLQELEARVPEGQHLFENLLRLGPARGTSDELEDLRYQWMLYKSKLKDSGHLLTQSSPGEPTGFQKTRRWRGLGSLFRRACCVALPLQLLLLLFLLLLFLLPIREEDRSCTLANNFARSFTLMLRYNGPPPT

[2] = target: T3, Sun5 (mouse (endogenous in testis)) (UniProt Q9DA32); assay: co-IP; lysate of WT mouse testicular tissue milled with liquid nitrogen (IP lysis solution with phosphatase inhibitors); 8 ug Sun5 or Nesprin3 antibody or mock IgG overnight at 4°C, Protein A/G magnetic beads, RIPA washes, acid elution, western blot
T3 sequence: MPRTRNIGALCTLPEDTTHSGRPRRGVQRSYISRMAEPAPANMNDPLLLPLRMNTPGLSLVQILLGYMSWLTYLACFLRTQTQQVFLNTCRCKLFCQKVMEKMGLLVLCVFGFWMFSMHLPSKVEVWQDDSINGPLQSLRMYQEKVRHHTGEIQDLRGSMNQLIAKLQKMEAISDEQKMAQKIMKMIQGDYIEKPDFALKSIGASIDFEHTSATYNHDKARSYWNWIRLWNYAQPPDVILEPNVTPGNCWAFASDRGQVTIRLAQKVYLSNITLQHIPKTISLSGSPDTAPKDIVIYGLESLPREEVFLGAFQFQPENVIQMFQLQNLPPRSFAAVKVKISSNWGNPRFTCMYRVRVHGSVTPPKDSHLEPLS

[3] = target: T4, Nesprin3 (mouse (endogenous in testis)) (UniProt Q4FZC9); assay: as above
T4 sequence: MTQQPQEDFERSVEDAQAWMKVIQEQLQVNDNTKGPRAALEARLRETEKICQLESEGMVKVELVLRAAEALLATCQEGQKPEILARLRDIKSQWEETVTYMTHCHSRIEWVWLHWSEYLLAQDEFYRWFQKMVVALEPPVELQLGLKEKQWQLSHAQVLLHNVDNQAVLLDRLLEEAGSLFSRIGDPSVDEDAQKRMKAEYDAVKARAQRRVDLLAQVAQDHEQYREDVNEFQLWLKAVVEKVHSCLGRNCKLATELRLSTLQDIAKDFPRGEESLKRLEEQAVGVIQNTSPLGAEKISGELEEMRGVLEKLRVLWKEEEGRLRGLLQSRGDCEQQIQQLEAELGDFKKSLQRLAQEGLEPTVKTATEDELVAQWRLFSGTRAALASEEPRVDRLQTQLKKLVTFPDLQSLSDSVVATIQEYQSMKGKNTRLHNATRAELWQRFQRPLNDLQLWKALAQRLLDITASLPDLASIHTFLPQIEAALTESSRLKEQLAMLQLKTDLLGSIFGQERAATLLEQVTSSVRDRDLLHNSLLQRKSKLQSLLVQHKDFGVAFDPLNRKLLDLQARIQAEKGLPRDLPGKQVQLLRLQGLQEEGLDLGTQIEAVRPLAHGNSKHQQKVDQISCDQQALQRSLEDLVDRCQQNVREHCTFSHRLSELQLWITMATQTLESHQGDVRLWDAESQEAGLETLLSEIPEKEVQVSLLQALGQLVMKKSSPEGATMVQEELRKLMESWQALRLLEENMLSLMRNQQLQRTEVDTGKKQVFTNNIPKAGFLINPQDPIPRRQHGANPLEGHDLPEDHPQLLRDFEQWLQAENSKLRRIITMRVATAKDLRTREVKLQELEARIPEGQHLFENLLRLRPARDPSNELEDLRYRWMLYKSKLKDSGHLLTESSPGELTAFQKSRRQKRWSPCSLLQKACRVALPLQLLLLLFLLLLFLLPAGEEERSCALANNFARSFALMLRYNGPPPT

binding [1]: binds
B2: SUN5-Flag (protein, UniProt Q8TC36 1-379)
chain: MPRSSRSPGDPGALLEDVAHNPRPRRIAQRGRNTSRMAEDTSPNMNDNILLPVRNNDQALGLTQCMLGCVSWFTCFACSLRTQAQQVLFNTCRCKLLCQKLMEKTGILLLCAFGFWMFSIHLPSKMKVWQDDSINGPLQSLRLYQEKVRHHSGEIQDLRGSMNQLIAKLQEMEAMSDEQKMAQKIMKMIHGDYIEKPDFALKSIGASIDFEHTSVTYNHEKAHSYWNWIQLWNYAQPPDVILEPNVTPGNCWAFEGDRGQVTIQLAQKVYLSNLTLQHIPKTISLSGSLDTAPKDFVIYGMEGSPKEEVFLGAFQFQPENIIQMFPLQNQPARAFSAVKVKISSNWGNPGFTCLYRVRVHGSVAPPREQPHQNPYPKRD

binding [3]: binds
B4: Sun5 (protein, UniProt Q9DA32 1-373)
chain: MPRTRNIGALCTLPEDTTHSGRPRRGVQRSYISRMAEPAPANMNDPLLLPLRMNTPGLSLVQILLGYMSWLTYLACFLRTQTQQVFLNTCRCKLFCQKVMEKMGLLVLCVFGFWMFSMHLPSKVEVWQDDSINGPLQSLRMYQEKVRHHTGEIQDLRGSMNQLIAKLQKMEAISDEQKMAQKIMKMIQGDYIEKPDFALKSIGASIDFEHTSATYNHDKARSYWNWIRLWNYAQPPDVILEPNVTPGNCWAFASDRGQVTIRLAQKVYLSNITLQHIPKTISLSGSPDTAPKDIVIYGLESLPREEVFLGAFQFQPENVIQMFQLQNLPPRSFAAVKVKISSNWGNPRFTCMYRVRVHGSVTPPKDSHLEPLS

Further lines, the binder ahead of its results:

B1: Nesprin3 (protein, UniProt Q6ZMZ3 1-975)
chain: MTQQPQDDFDRSVEDAQAWMKAVQDQLQVNDNTQGPRAALEARLWETEKICQLEPEGRVRVDLVLRMAEALLACCPGDQKPGILARLKDIKAQWEETVTYMTHCHSRIEWVWLHWSEYLLARDEFYRWFQKMMVTLEPHIELQLGLKEKQWQLSHAQVLLHNVDNQAVLLDRLLEEAASLFNRIGDPSVDEDAQKRMKAEYDAVKAKAQKRVDLLEQVAREHEEYQAGVDEFQLWLKAVVEKVNGCLGRNCKLPITQRLSTLQDIAKDFPRGEESLETLEEQSAGVIRNTSPLGAEKITGELEEMRKVLEKLRALWEEEEERLRGLLRSRGAWEQQIKQLEAELSEFRMVLQRLAQEGLQPAAKAGTEDELVAHWRRYSATRAALASEEPRVDRLQAQLKELIVFPHNLKPLSDSVIATIQEYQSLKVKSARLRNAAAVELWQHFQRPLQDLQLWKALAQRLLEVTASLPDLPSLHTFLPQIEAALMESSRLKELLTMLQLKKDLLIGIFGQERATALLEQVAGSMRDRDLLHNSLLQRKSKLQSLLAQHKDFGAAFEPLQRKLLDLQVRVQAEKGLQRDLPGKQAQLSRLQGLQEEGLDLGAQMEAARPLVQENPNHQHKMDQLSSDFQALQRSLEDLVDRCRQSVQEHCTFSHQLLELRQWIVVTTQKLEAHRGEAGPGDAESQEAEFERLVAEFPEKEAQLSLVEAQGWLVMEKSSPEGAAVVQEELRELAESWRALRLLEESLLSLIRNWHLQRMEVDSGKKMVFTNNIPKSGFLINPMDPIPRHRRRANLLQEEEGSHEDFSQLLRNFGQWLQVENSKLVRIIAMRTSTAEDLRTRKSKLQELEARVPEGQHLFENLLRLGPARGTSDELEDLRYQWMLYKSKLKDSGHLLTQSSPGEPTGFQKTRRWRGLGSLFRRACCVALPLQLLLLLFLLLLFLLPIREEDRSCTLANNFARSFTLMLRYNGPPPT
binding (SUN5-Flag): binds

B3: Nesprin3 (protein, UniProt Q4FZC9 1-975)
chain: MTQQPQEDFERSVEDAQAWMKVIQEQLQVNDNTKGPRAALEARLRETEKICQLESEGMVKVELVLRAAEALLATCQEGQKPEILARLRDIKSQWEETVTYMTHCHSRIEWVWLHWSEYLLAQDEFYRWFQKMVVALEPPVELQLGLKEKQWQLSHAQVLLHNVDNQAVLLDRLLEEAGSLFSRIGDPSVDEDAQKRMKAEYDAVKARAQRRVDLLAQVAQDHEQYREDVNEFQLWLKAVVEKVHSCLGRNCKLATELRLSTLQDIAKDFPRGEESLKRLEEQAVGVIQNTSPLGAEKISGELEEMRGVLEKLRVLWKEEEGRLRGLLQSRGDCEQQIQQLEAELGDFKKSLQRLAQEGLEPTVKTATEDELVAQWRLFSGTRAALASEEPRVDRLQTQLKKLVTFPDLQSLSDSVVATIQEYQSMKGKNTRLHNATRAELWQRFQRPLNDLQLWKALAQRLLDITASLPDLASIHTFLPQIEAALTESSRLKEQLAMLQLKTDLLGSIFGQERAATLLEQVTSSVRDRDLLHNSLLQRKSKLQSLLVQHKDFGVAFDPLNRKLLDLQARIQAEKGLPRDLPGKQVQLLRLQGLQEEGLDLGTQIEAVRPLAHGNSKHQQKVDQISCDQQALQRSLEDLVDRCQQNVREHCTFSHRLSELQLWITMATQTLESHQGDVRLWDAESQEAGLETLLSEIPEKEVQVSLLQALGQLVMKKSSPEGATMVQEELRKLMESWQALRLLEENMLSLMRNQQLQRTEVDTGKKQVFTNNIPKAGFLINPQDPIPRRQHGANPLEGHDLPEDHPQLLRDFEQWLQAENSKLRRIITMRVATAKDLRTREVKLQELEARIPEGQHLFENLLRLRPARDPSNELEDLRYRWMLYKSKLKDSGHLLTESSPGELTAFQKSRRQKRWSPCSLLQKACRVALPLQLLLLLFLLLLFLLPAGEEERSCALANNFARSFALMLRYNGPPPT
binding [2]: binds
